Experimental data published in patent US11118065B2, “Fluorenylaminoketone photoinitiator, preparation method thereof, and UV photocurable composition containing same” (CHANGZHOU TRONLY ADVANCED ELECTRONIC MATERIALS CO., LTD., priority 2017, dated 2021).

Assays:
[1] = Test of curing property: UV curing ink spray coated on ceramic tile; details: hundred-grid crosscut method, 5% photoinitiator, 60-80 μm, UV 80 mw/cm^2 for 50s
[2] = Example 21: UV coating on tin-plated steel plate; parameters: key to Odor: 1: odorless; 2: odorous; 3: irritatingly odorous; details: for Exposure demand mJ/cm^2: 25 μm, 250-450 nm; for Adherence: crosscut test GB9286-88; for Odor: residual odor of cured film; for Yellowing: value of Δb, colorimeter scan 400-700 nm, after baking at 80° C. for 24 h
[3] = Example 23: UV solder resist ink; parameters: key to Odor: 1: odorless; 2: odorous; 3: irritatingly odorous; key to Pattern integrity: Δ: there was no defect; □: there were a few defects; ▴: there were severe defects; details: for Exposure demand mJ/cm^2: dry film 12-15 μm, 250-450 nm; for Odor: residual odor of cured film; for Yellowing: value of Δb
[4] = Example 22: UV etching resist ink; parameters: key to Odor: 1: odorless; 2: odorous; 3: irritatingly odorous; key to Pattern integrity: Δ: there was no defect; □: there were a few defects; ▴: there were severe defects; details: for Odor: residual odor of cured film
[5] = Example 24: UV flexographic printing ink on white paperboard; parameters: key: 1: odorless; 2: odorous; 3: irritatingly odorous; details: residual odor of cured film
[6] = Example 25: UV offset printing ink on plastic substrate; parameters: key to Odor: 1: odorless; 2: odorous; 3: irritatingly odorous; details: for Exposure demand mJ/cm^2: 2 μm, 250-450 nm; for Adherence: crosscut test GB9286-88; for Odor: residual odor of cured film; for Yellowing: value of Δb

In the case of `C=CCC1(CC=C)c2cc(OC)ccc2-c2ccc(C(=O)C(C)(C)N3CCOCC3)cc21` [Compound 4], the Adherence ([1]; black ink) is reported as “Level 0”, the Adherence ([1]; blue ink) is reported as “Level 0” and the Adherence ([1]; red ink) is reported as “Level 0”. The Adherence ([1]; yellow ink) was “Level 0”, the “Exposure demand mJ/cm^2” value [2] was 120 mJ/cm^2 and the Adherence [2] was “Level 0”. The Odor [2] was 1, the Yellowing [2] was 0.72 and the Pattern integrity [3] was “Δ”. For the same molecule, the “Exposure demand mJ/cm^2” value [3] was 100 mJ/cm^2, the Odor [3] was 1 and the Yellowing [3] was 0.78.

With `CCCCC1(CCCC)c2ccccc2-c2ccc(C(=O)C(C)(C)N3CCOCC3)cc21` [Compound 5] the Adherence ([1]; black ink) was “Level 0”, the Adherence ([1]; blue ink) was “Level 0” and the Adherence ([1]; red ink) was “Level 0”. For the same molecule, the Adherence ([1]; yellow ink) was “Level 0”, the “Exposure demand mJ/cm^2” value [2] was 110 mJ/cm^2 and the Adherence [2] was “Level 0”. The Odor [2] was 1, the Yellowing [2] was 0.74 and the Pattern integrity [4] was “Δ”. The Odor [4] was 1, the Pattern integrity [3] was “Δ” and the “Exposure demand mJ/cm^2” value [3] was 90 mJ/cm^2. It also gave an Odor [3] of 1 and a Yellowing [3] of 0.76.

Molecule `CCCCC1(CCCC)c2cc(Cl)ccc2-c2ccc(C(=O)C(C)(C)N3CCOCC3)cc21` [Compound 6] has an Odor [5] of 1.

For `CCCCC1(CCCC)c2cc(C(=O)C(C)(C)N3CCOCC3)ccc2-c2ccc([N+](=O)[O-])cc21` [Compound 7], the “Exposure demand mJ/cm^2” value [6] was 110 mJ/cm^2, the Adherence [6] was “Level 0” and the Odor [6] was 1. The Yellowing [6] was 0.58.

For `CCCCC1(CCCC)c2cc(C(=O)c3ccccc3)ccc2-c2ccc(C(=O)C(C)(C)N3CCOCC3)cc21` [Compound 9], the Adherence ([1]; black ink) was “Level 0”, the Adherence ([1]; blue ink) was “Level 0” and the Adherence ([1]; red ink) was “Level 0”. For the same molecule, the Adherence ([1]; yellow ink) was “Level 0”, the “Exposure demand mJ/cm^2” value [2] was 130 mJ/cm^2 and the Adherence [2] was “Level 0”. For the same molecule, the Odor [2] was 1, the Yellowing [2] was 0.68 and the “Exposure demand mJ/cm^2” value [6] was 110 mJ/cm^2. The Adherence [6] was “Level 0”, the Odor [6] was 1 and the Yellowing [6] was 0.66.

With `CCCCC1(CCCC)c2cc(C(=O)C(CC)(Cc3ccccc3)N(C)C)ccc2-c2ccc(N3CCOCC3)cc21` (stereo not drawn) [Compound 14] the Adherence ([1]; black ink) was “Level 0”, the Adherence ([1]; blue ink) was “Level 0” and the Adherence ([1]; red ink) was “Level 0”. For the same molecule, the Adherence ([1]; yellow ink) was “Level 0”, the “Exposure demand mJ/cm^2” value [2] was 110 mJ/cm^2 and the Adherence [2] was “Level 0”. The Odor [2] was 1, the Yellowing [2] was 0.74 and the “Exposure demand mJ/cm^2” value [6] was 110 mJ/cm^2. For the same molecule, the Adherence [6] was “Level 0”, the Odor [6] was 1 and the Yellowing [6] was 0.68.

For `CC1(C)c2ccccc2-c2ccc(C(=O)C(C)(C)N3CCCCC3)cc21` [Compound 15], the Pattern integrity [4] was “Δ”, the Odor [4] was 1 and the Pattern integrity [3] was “Δ”. The “Exposure demand mJ/cm^2” value [3] was 90 mJ/cm^2, the Odor [3] was 1 and the Yellowing [3] was 0.78.

`CCCCC1(CCCC)c2cc(OC)ccc2-c2ccc(C(=O)C(C)(C)N3CCCCC3)cc21` [Compound 16] gave an Odor [5] of 1.

In the case of `CC(C)(C(=O)c1ccc2c(c1)Cc1cc(C(=O)C(C)(C)N3CCCCC3)ccc1-2)N1CCCCC1` [Compound 24], the Adherence ([1]; black ink) is reported as “Level 0”, the Adherence ([1]; blue ink) is reported as “Level 0” and the Adherence ([1]; red ink) is reported as “Level 0”. The Adherence ([1]; yellow ink) was “Level 0”, the “Exposure demand mJ/cm^2” value [2] was 120 mJ/cm^2 and the Adherence [2] was “Level 0”. For the same molecule, the Odor [2] was 1, the Yellowing [2] was 0.77 and the Pattern integrity [4] was “Δ”. For the same molecule, the Odor [4] was 1, the “Exposure demand mJ/cm^2” value [6] was 110 mJ/cm^2 and the Adherence [6] was “Level 0”. It also gave an Odor [6] of 1 and a Yellowing [6] of 0.58.

For `CCCCC1(CCCC)c2ccccc2-c2ccc(C(=O)C(C)(Cc3ccccc3)N(C)C)cc21` (stereo not drawn) [Compound 27], the Pattern integrity [4] was “Δ”, the Odor [4] was 1 and the “Exposure demand mJ/cm^2” value [6] was 110 mJ/cm^2. The Adherence [6] was “Level 0”, the Odor [6] was 1 and the Yellowing [6] was 0.59.

In the case of `CC(Cc1ccccc1)(C(=O)c1ccc2c(c1)Cc1ccccc1-2)N1CCOCC1` (stereo not drawn) [Compound 28], the “Exposure demand mJ/cm^2” value [2] is reported as 110 mJ/cm^2, the Adherence [2] is reported as “Level 0” and the Odor [2] is reported as 1. For the same molecule, the Yellowing [2] was 0.70.

For `CN(C)C(C)(Cc1ccccc1)C(=O)c1ccc2c(c1)Cc1cc(C(=O)c3ccccc3)ccc1-2` (stereo not drawn) [Compound 30], the Pattern integrity [3] was “Δ”, the “Exposure demand mJ/cm^2” value [3] was 110 mJ/cm^2 and the Odor [3] was 1. The Yellowing [3] was 0.76, the “Exposure demand mJ/cm^2” value [6] was 120 mJ/cm^2 and the Adherence [6] was “Level 0”. The Odor [6] was 1 and the Yellowing [6] was 0.68.

In the case of `CCCCC1(CCCC)c2cc(C(=O)c3ccccc3)ccc2-c2ccc(C(=O)C(C)(Cc3ccccc3)N(C)C)cc21` (stereo not drawn) [Compound 31], the Pattern integrity [4] is reported as “Δ” and the Odor [4] is reported as 1.

In the case of `CCC(Cc1ccccc1)(C(=O)c1ccc2c(c1)Cc1cc(C(=O)c3ccccc3)ccc1-2)N1CCOCC1` (stereo not drawn) [Compound 32], the “Exposure demand mJ/cm^2” value [2] is reported as 110 mJ/cm^2, the Adherence [2] is reported as “Level 0” and the Odor [2] is reported as 1. It also gave a Yellowing [2] of 0.68.

In the case of `C=CCC1(CC=C)c2ccccc2-c2ccc(C(=O)C(C)(C)N3CCOCC3)cc21` [Compound 35], the Pattern integrity [4] is reported as “Δ”, the Odor [4] is reported as 1 and the “Exposure demand mJ/cm^2” value [6] is reported as 100 mJ/cm^2. The Adherence [6] was “Level 0”, the Odor [6] was 1 and the Yellowing [6] was 0.70.

With `COc1ccc2c(c1)C1(CCC3(CC1)c1cc(OC)ccc1-c1ccc(C(=O)C(C)(C)N4CCOCC4)cc13)c1cc(C(=O)C(C)(C)N3CCOCC3)ccc1-2` (stereo not drawn) [Compound 36] the Odor [5] was 1.

For `CCCCC1(CCCC)c2cc(C)ccc2-c2ccc(C(=O)C(C)(CCC(C)(C(=O)c3ccc4c(c3)C(CCCC)(CCCC)c3cc(C)ccc3-4)N(C)C)N(C)C)cc21` (stereo not drawn) [Compound 37], the Pattern integrity [4] was “Δ” and the Odor [4] was 1.

With `CCC(Cc1ccccc1)(C(=O)c1ccc2c(c1)C(C)(C)c1cc(N3CCOCC3)ccc1-2)N(C)C` (stereo not drawn) [Compound 38, 2-benzyl-2-dimethylamino-9,9-dimethyl-1-(7-morpholinofluorenyl)butanone] the Adherence ([1]; black ink) was “Level 0”, the Adherence ([1]; blue ink) was “Level 0” and the Adherence ([1]; red ink) was “Level 0”. For the same molecule, the Adherence ([1]; yellow ink) was “Level 0”, the “Exposure demand mJ/cm^2” value [2] was 110 mJ/cm^2 and the Adherence [2] was “Level 0”. The Odor [2] was 1, the Yellowing [2] was 0.68 and the Pattern integrity [3] was “Δ”. For the same molecule, the “Exposure demand mJ/cm^2” value [3] was 100 mJ/cm^2, the Odor [3] was 1 and the Yellowing [3] was 0.75. The “Exposure demand mJ/cm^2” value [6] was 110 mJ/cm^2, the Adherence [6] was “Level 0” and the Odor [6] was 1. For the same molecule, the Yellowing [6] was 0.65.

In the case of `C=CCC(CC)(C(=O)c1ccc2c(c1)C(C)(C)c1cc(N3CCCCC3)ccc1-2)N(C)C` (stereo not drawn) [Compound 39, 2-allyl-2-dimethylamino-9,9-dimethyl-2-(7-piperidinylfluorenyl)butanone], the Adherence ([1]; blue ink) is reported as “Level 0”, the Adherence ([1]; yellow ink) is reported as “Level 0” and the Pattern integrity [4] is reported as “Δ”. It also gave an Odor [4] of 1.

For `CCCCC1(CCCC)c2ccccc2-c2ccc(C(=O)C(CC)(Cc3ccccc3)N(C)C)cc21` (stereo not drawn) [Compound 40, 2-benzyl-2-dimethylamino-9,9-dibutylfluorene-1-butanone], the Adherence ([1]; black ink) was “Level 0”, the Adherence ([1]; blue ink) was “Level 0” and the Adherence ([1]; red ink) was “Level 0”. The Adherence ([1]; yellow ink) was “Level 0”.

For `CCCCC1(CCCC)c2cc(C(=O)c3ccccc3)ccc2-c2ccc(C(=O)C(CC)(Cc3ccccc3)N(C)C)cc21` (stereo not drawn) [Compound 41, 2-benzyl-2-dimethylamino-9,9-dibutyl-1-(7-benzoyl)butanone], the Adherence ([1]; black ink) was “Level 1”, the Adherence ([1]; blue ink) was “Level 0” and the Adherence ([1]; red ink) was “Level 1”. For the same molecule, the Adherence ([1]; yellow ink) was “Level 0”, the “Exposure demand mJ/cm^2” value [6] was 100 mJ/cm^2 and the Adherence [6] was “Level 0”. It also gave an Odor [6] of 1 and a Yellowing [6] of 0.64.

With `CCCC1(CCC)c2cc(C(=O)C(CC)(Cc3ccccc3)N(C)C)ccc2-c2ccc(N3CCCCC3)cc21` (stereo not drawn) [Compound 43] the Adherence ([1]; black ink) was “Level 1”, the Adherence ([1]; blue ink) was “Level 0” and the Adherence ([1]; red ink) was “Level 1”. The Adherence ([1]; yellow ink) was “Level 1”, the Pattern integrity [4] was “Δ” and the Odor [4] was 1. For the same molecule, the “Exposure demand mJ/cm^2” value [6] was 110 mJ/cm^2, the Adherence [6] was “Level 0” and the Odor [6] was 1. For the same molecule, the Yellowing [6] was 0.70.

Work on `CCC(Cc1ccc(C)cc1)(C(=O)c1ccc2c(c1)C(C)(C)c1cc(N3CCCCC3)ccc1-2)N1CCCCC1` (stereo not drawn) [Compound 44] yielded an Odor [5] of 1.

With `CCC(Cc1ccccc1)(C(=O)c1ccc2c(c1)C(C)(C)c1cc(N(CCO)CCO)ccc1-2)N(C)C` (stereo not drawn) [Compound 45] the Adherence ([1]; black ink) was “Level 0”, the Adherence ([1]; blue ink) was “Level 0” and the Adherence ([1]; red ink) was “Level 0”. For the same molecule, the Adherence ([1]; yellow ink) was “Level 0”, the “Exposure demand mJ/cm^2” value [2] was 120 mJ/cm^2 and the Adherence [2] was “Level 0”. The Odor [2] was 1, the Yellowing [2] was 0.73 and the Pattern integrity [4] was “Δ”. The Odor [4] was 1, the Pattern integrity [3] was “Δ” and the “Exposure demand mJ/cm^2” value [3] was 100 mJ/cm^2. It also gave an Odor [3] of 1 and a Yellowing [3] of 0.74.

With `CCC(Cc1ccccc1)(C(=O)c1ccc(N2CCOCC2)cc1)N(C)C` (stereo not drawn) [Irgacure 369, 2-benzyl-2-dimethylamino-1-(4-morpholinophenyl)butanone, reference compound] the Adherence ([1]; black ink) was “Level 3”, the Adherence ([1]; blue ink) was “Level 2” and the Adherence ([1]; red ink) was “Level 2”. For the same molecule, the Adherence ([1]; yellow ink) was “Level 2”, the “Exposure demand mJ/cm^2” value [6] was 210 mJ/cm^2 and the Adherence [6] was “Level 1”. For the same molecule, the Odor [6] was 1 and the Yellowing [6] was 1.08.
